# In the supplement of paper PMC10849652:
# Protein sequences, listed by entry. Tags and fused reporters are not part of them. Lines headed by an entry give the natural chain unless they say otherwise; changes in a name come on top.
# UniProt P00352: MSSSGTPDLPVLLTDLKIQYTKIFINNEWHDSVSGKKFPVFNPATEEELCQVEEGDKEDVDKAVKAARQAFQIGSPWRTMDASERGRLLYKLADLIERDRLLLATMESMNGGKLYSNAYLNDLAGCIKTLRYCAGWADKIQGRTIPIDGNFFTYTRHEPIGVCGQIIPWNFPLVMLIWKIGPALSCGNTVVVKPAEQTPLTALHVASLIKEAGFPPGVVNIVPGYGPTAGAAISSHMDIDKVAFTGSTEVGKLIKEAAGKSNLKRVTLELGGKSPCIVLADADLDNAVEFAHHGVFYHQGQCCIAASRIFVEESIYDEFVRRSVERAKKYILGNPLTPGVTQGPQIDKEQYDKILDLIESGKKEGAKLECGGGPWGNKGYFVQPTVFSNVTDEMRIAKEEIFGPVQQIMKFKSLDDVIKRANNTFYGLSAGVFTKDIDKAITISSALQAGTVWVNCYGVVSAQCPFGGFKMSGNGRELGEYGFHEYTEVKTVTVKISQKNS
# UniProt Q92688: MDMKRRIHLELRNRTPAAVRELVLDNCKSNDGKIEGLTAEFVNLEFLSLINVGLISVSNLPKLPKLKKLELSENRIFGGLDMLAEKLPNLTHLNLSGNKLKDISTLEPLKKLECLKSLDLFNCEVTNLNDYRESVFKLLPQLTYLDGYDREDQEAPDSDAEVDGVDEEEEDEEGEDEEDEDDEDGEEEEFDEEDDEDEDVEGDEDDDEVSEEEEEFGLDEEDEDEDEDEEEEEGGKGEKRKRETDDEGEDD
# UniProt Q8NB46: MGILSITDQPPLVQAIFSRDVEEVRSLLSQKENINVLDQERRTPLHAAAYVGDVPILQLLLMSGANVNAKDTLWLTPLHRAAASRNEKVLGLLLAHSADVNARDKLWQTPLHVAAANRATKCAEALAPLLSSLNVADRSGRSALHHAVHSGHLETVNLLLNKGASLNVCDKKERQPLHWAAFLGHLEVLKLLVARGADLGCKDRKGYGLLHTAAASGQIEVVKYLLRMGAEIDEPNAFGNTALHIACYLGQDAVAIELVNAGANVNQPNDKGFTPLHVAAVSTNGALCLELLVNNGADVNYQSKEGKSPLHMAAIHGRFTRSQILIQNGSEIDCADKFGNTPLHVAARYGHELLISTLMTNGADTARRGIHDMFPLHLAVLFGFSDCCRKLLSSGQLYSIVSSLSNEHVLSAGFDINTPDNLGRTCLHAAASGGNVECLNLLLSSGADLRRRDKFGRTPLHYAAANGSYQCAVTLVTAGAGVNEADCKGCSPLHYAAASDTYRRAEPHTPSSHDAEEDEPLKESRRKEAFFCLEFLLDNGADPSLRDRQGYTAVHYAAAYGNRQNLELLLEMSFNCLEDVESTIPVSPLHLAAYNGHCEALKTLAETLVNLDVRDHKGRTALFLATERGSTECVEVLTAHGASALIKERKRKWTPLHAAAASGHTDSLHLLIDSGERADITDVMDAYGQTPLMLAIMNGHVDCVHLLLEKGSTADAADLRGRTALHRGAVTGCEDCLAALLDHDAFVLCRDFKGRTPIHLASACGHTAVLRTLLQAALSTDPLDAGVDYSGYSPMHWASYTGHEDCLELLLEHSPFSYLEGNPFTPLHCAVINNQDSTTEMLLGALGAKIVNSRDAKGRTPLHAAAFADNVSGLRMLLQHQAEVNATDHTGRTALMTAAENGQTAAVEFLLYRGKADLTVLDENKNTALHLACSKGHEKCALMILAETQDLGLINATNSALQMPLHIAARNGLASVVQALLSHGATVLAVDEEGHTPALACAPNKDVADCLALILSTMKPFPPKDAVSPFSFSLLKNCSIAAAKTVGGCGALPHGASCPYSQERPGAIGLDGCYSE
# UniProt Q9NP73: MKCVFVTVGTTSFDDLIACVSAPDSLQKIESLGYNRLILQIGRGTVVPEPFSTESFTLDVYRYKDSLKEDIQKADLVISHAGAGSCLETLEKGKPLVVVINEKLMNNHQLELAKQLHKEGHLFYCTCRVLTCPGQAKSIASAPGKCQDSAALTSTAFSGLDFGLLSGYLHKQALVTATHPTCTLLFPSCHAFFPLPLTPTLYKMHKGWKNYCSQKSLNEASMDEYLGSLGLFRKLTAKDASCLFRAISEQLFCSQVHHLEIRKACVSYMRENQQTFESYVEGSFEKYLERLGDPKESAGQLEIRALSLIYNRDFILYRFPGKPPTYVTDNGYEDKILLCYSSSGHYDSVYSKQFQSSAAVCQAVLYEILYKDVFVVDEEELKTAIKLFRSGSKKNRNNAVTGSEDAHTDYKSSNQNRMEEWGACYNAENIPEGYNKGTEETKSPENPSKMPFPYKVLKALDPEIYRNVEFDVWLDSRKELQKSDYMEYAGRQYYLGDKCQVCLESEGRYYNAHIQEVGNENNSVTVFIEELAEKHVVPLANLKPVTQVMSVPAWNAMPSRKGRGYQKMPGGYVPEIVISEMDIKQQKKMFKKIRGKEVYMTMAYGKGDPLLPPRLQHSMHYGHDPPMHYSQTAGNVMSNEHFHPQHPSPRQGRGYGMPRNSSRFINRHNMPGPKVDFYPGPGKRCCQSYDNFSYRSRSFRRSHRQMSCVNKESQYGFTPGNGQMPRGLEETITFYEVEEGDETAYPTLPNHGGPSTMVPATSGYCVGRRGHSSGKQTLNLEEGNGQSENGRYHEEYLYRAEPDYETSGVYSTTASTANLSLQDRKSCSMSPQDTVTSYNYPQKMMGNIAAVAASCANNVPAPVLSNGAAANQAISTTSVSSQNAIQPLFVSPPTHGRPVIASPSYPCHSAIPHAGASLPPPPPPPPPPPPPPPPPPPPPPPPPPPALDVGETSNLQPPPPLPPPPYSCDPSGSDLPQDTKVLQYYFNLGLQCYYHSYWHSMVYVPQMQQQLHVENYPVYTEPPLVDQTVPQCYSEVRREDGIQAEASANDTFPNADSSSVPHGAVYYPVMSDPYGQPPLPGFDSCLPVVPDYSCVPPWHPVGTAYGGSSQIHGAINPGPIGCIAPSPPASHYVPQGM
# UniProt Q9P2R3: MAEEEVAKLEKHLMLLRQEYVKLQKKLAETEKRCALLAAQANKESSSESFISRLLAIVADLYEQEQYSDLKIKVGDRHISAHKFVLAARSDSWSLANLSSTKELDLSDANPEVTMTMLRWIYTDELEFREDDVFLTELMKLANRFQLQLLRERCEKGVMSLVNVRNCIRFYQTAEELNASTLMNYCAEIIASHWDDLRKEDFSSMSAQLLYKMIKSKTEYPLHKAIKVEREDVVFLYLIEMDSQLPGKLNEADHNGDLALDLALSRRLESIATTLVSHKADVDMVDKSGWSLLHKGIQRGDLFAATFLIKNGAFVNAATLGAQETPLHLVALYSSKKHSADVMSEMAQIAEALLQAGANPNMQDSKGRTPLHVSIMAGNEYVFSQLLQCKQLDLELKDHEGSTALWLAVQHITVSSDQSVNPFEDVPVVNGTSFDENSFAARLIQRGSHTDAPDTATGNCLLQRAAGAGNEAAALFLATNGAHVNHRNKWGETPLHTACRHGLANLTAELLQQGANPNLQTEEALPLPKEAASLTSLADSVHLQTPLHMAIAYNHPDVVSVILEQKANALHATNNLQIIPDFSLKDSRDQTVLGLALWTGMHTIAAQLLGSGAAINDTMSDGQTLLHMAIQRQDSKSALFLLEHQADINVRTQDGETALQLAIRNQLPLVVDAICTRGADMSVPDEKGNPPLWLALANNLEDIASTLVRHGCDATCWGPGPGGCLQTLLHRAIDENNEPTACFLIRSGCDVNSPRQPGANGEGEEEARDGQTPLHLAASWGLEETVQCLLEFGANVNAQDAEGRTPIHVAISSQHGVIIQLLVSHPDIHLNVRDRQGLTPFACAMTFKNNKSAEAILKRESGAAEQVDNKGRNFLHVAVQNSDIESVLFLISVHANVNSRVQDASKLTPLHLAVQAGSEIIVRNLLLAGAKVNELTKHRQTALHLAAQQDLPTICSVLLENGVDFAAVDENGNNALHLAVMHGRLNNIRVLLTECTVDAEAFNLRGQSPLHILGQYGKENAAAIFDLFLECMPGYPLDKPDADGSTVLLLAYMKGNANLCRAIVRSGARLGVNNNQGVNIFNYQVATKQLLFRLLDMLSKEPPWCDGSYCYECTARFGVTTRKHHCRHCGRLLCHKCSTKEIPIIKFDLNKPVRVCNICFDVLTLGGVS
# UniProt P61966: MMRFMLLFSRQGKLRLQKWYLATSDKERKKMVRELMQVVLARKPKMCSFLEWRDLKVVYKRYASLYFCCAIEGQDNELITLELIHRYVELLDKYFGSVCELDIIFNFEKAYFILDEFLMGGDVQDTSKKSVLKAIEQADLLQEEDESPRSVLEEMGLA
# UniProt P15144: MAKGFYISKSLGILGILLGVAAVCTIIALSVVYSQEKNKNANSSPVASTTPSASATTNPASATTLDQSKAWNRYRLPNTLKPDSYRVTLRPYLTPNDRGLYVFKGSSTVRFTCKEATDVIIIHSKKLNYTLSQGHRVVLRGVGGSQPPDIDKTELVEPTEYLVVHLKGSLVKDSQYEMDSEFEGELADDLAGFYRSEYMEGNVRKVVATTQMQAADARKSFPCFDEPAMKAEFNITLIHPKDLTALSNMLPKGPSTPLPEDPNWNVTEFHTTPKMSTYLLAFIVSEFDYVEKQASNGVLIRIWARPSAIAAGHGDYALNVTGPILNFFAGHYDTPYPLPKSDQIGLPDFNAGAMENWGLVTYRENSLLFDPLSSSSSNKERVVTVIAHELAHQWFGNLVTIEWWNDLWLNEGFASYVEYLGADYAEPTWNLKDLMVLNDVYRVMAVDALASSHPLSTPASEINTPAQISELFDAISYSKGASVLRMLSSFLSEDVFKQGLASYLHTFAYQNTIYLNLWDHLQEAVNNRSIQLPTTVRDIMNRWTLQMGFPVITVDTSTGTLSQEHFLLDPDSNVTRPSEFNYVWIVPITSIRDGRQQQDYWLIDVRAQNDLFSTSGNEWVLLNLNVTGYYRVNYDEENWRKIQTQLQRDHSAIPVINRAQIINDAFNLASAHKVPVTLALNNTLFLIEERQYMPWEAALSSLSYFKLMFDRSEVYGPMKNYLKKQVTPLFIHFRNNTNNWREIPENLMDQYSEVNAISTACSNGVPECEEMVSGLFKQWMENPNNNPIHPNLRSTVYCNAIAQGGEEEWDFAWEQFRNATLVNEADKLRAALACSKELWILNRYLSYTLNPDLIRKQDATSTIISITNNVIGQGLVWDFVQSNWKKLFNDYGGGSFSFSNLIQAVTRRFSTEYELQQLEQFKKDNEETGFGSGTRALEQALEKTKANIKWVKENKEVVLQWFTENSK
# UniProt Q9UM13, whole entry, looked up: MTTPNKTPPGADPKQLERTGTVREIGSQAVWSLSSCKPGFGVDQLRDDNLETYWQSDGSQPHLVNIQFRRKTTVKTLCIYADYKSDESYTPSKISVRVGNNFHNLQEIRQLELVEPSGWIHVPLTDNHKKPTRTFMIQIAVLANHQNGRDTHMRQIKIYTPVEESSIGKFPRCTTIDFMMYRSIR
# UniProt Q9BVK2: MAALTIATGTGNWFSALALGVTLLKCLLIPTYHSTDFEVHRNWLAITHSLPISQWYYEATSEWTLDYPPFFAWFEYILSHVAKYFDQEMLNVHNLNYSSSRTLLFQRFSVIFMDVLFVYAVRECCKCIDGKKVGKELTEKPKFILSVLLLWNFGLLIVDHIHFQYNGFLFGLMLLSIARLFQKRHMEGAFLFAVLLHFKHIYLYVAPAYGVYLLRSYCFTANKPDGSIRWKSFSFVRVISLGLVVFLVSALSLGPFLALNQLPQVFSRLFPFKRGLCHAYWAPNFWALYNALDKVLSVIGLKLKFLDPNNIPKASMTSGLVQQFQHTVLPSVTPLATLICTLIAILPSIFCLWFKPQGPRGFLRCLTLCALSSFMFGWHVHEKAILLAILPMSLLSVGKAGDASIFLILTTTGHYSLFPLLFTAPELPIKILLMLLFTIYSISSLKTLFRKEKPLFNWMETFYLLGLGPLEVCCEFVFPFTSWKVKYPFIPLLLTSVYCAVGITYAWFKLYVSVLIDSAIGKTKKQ
# UniProt P07355, whole entry, looked up: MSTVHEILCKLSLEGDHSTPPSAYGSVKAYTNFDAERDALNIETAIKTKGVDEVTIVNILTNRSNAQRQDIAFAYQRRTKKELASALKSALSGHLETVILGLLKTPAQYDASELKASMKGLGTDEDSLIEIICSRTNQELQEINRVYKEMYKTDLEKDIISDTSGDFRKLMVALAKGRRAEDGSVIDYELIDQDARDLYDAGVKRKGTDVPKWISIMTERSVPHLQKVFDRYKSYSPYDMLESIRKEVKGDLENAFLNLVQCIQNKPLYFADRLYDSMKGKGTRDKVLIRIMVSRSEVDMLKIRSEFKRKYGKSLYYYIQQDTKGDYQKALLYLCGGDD
# The other results are listed elsewhere or left out.
# Compound: CN1CCc2c(c3ccccc3n2Cc2ccc(C(=O)NO)cc2)C1 [Tubastatin A]
# Assay: log2 fold change, soluble protein after heating vs DMSO (PISA); higher = thermal stabilisation; K562 lysate, 10 uM; active = over 0.2 and 3.5 SD of the protein, either way, in both replicates (recomputed)
# Procedure, shortened: (§1)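 Log-two fold change in thermal stability relative to solvent controls is reported from duplicates. For each sample, crude K562 extract from dounce-homogenised pellets in PBS pH 7.4 with 1 mM MgCl2, at 1 mg/mL protein, was treated with 10 μM compound for 30 min. Aliquots heated for 3 min across 48°C-58°C were pooled, brought to 0.5% NP-40 at 4°C and cleared at 21,000xg for 90 min. The supernatant was quantified by TMTpro 16plex LC-MS/MS with channel sums equalised.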
row,Target,log2 fold change
1,ALDH1A1 (UniProt P00352),inactive: -0.004
2,ALDOA (UniProt P04075),inactive: 0.044
3,ALG2 (UniProt Q9H553),inactive: -0.061
4,ANP32B (UniProt Q92688),inactive: 0.024
5,ANKRD30B (UniProt Q9BXX2),inactive: 0.007
6,ANKRD11 (UniProt Q6UB99),inactive: -0.017
7,ANKRD52 (UniProt Q8NB46),inactive: -0.132
8,AP3B2 isoform 4 (UniProt Q13367),inactive: -0.033
9,ALG13 (UniProt Q9NP73),inactive: -0.065
10,ANKFY1 isoform 4 (UniProt Q9P2R3),inactive: -0.038
11,AP4E1 (UniProt Q9UPM8),inactive: -0.081
12,ANKHD1 isoform 6 (UniProt Q8IWZ3),inactive: -0.091
13,ALDH4A1 (UniProt P30038),inactive: -0.05
14,ALDH9A1 isoform 3 (UniProt P49189),inactive: -0.018
15,ALKBH2 (UniProt Q6NS38),inactive: 0.041
16,ALDH6A1 (UniProt Q02252),active: 0.43
17,ANAPC5 (UniProt Q9UJX4),inactive: -0.104

row,Target,log2 fold change
1,AKT1 (UniProt P31749),inactive: -0.018
2,ANO10 (UniProt Q9NW15),inactive: 0.022
3,AP1S1 (UniProt P61966),inactive: -0.04
4,ALDH1B1 (UniProt P30837),inactive: 0.01
5,ALDH1L2 (UniProt Q3SY69),inactive: -0.03
6,ANKRD46 (UniProt Q86W74),inactive: 0.04
7,ANPEP (UniProt P15144),inactive: 0.063
8,ANXA5 (UniProt P08758),inactive: 0
9,ANAPC10 (UniProt Q9UM13),inactive: -0.003
10,ALDH1A2 (UniProt O94788),inactive: 0.057
11,AKT1S1 isoform 3 (UniProt Q96B36),inactive: 0.025
12,ANAPC7 (UniProt Q9UJX3),inactive: -0.1
13,AP1G1 isoform 2 (UniProt O43747),inactive: 0.012
14,AMMECR1L (UniProt Q6DCA0),inactive: -0.064
15,ALG8 (UniProt Q9BVK2),inactive: -0.118
16,ANXA2 isoform 2 (UniProt P07355),inactive: 0.013

# Compound: CNC(=O)C1=CC=CC=C1NC2=NC(=NC=C2Cl)NC3=C(C=C(C=C3)N4CCOCC4)OC
# Assay: as above
# Procedure, shortened: as §1
row,Target,log2 fold change
1,ALDH1A1 (UniProt P00352),inactive: 0.004
2,ALDOA (UniProt P04075),inactive: 0.006
3,ALG2 (UniProt Q9H553),inactive: 0.011
4,ANP32B (UniProt Q92688),inactive: 0.01
5,ANKRD30B (UniProt Q9BXX2),inactive: -0.01
6,ANKRD11 (UniProt Q6UB99),inactive: 0.049
7,ANKRD52 (UniProt Q8NB46),inactive: -0.003
8,AP3B2 isoform 4 (UniProt Q13367),inactive: 0.023
9,ALG13 (UniProt Q9NP73),inactive: 0.122
10,ANKFY1 isoform 4 (UniProt Q9P2R3),inactive: 0.002
11,AP4E1 (UniProt Q9UPM8),inactive: -0.007
12,ANKHD1 isoform 6 (UniProt Q8IWZ3),inactive: 0.014
13,ALDH4A1 (UniProt P30038),inactive: 0.026
14,ALDH9A1 isoform 3 (UniProt P49189),inactive: 0.029
15,ALKBH2 (UniProt Q6NS38),inactive: 0.01
16,ALDH6A1 (UniProt Q02252),inactive: 0.106
17,ANAPC5 (UniProt Q9UJX4),inactive: 0.022

row,Target,log2 fold change
1,AKT1 (UniProt P31749),inactive: 0.036
2,ANO10 (UniProt Q9NW15),inactive: -0.026
3,AP1S1 (UniProt P61966),inactive: -0.002
4,ALDH1B1 (UniProt P30837),active: 0.233
5,ALDH1L2 (UniProt Q3SY69),inactive: -0.028
6,ANKRD46 (UniProt Q86W74),inactive: 0.013
7,ANPEP (UniProt P15144),inactive: 0
8,ANXA5 (UniProt P08758),inactive: -0.023
9,ANAPC10 (UniProt Q9UM13),inactive: 0.075
10,ALDH1A2 (UniProt O94788),inactive: -0.034
11,AKT1S1 isoform 3 (UniProt Q96B36),inactive: -0.022
12,ANAPC7 (UniProt Q9UJX3),inactive: 0.036
13,AP1G1 isoform 2 (UniProt O43747),inactive: 0.014
14,AMMECR1L (UniProt Q6DCA0),inactive: -0.113
15,ALG8 (UniProt Q9BVK2),inactive: -0.007
16,ANXA2 isoform 2 (UniProt P07355),inactive: -0.012

# Compound: CNC(=O)c1ccc(Nc2ncc(C(F)(F)F)c(NCc3nccnc3N(C)S(C)(=O)=O)n2)cc1 [defactinib]
# Assay: as above
# Procedure, shortened: as §1
row,Target,log2 fold change
1,ALDH1A1 (UniProt P00352),inactive: -0.007
2,ALDOA (UniProt P04075),inactive: -0.002
3,ALG2 (UniProt Q9H553),inactive: -0.077
4,ANP32B (UniProt Q92688),inactive: -0.026
5,ANKRD30B (UniProt Q9BXX2),inactive: -0.155
6,ANKRD11 (UniProt Q6UB99),inactive: 0.031
7,ANKRD52 (UniProt Q8NB46),inactive: 0.076
8,AP3B2 isoform 4 (UniProt Q13367),inactive: 0.003
9,ALG13 (UniProt Q9NP73),inactive: 0.028
10,ANKFY1 isoform 4 (UniProt Q9P2R3),inactive: 0.018
11,AP4E1 (UniProt Q9UPM8),inactive: 0.077
12,ANKHD1 isoform 6 (UniProt Q8IWZ3),inactive: 0.032
13,ALDH4A1 (UniProt P30038),inactive: -0.025
14,ALDH9A1 isoform 3 (UniProt P49189),inactive: 0.012
15,ALKBH2 (UniProt Q6NS38),inactive: 0
16,ALDH6A1 (UniProt Q02252),inactive: 0.018
17,ANAPC5 (UniProt Q9UJX4),inactive: -0.012

row,Target,log2 fold change
1,AKT1 (UniProt P31749),inactive: 0.038
2,ANO10 (UniProt Q9NW15),inactive: 0.009
3,AP1S1 (UniProt P61966),inactive: 0.065
4,ALDH1B1 (UniProt P30837),inactive: -0.029
5,ALDH1L2 (UniProt Q3SY69),inactive: -0.04
6,ANKRD46 (UniProt Q86W74),inactive: 0.091
7,ANPEP (UniProt P15144),inactive: 0.006
8,ANXA5 (UniProt P08758),inactive: -0.002
9,ANAPC10 (UniProt Q9UM13),inactive: 0.008
10,ALDH1A2 (UniProt O94788),inactive: -0.027
11,AKT1S1 isoform 3 (UniProt Q96B36),inactive: -0.015
12,ANAPC7 (UniProt Q9UJX3),inactive: 0.014
13,AP1G1 isoform 2 (UniProt O43747),inactive: 0.003
14,AMMECR1L (UniProt Q6DCA0),inactive: 0.061
15,ALG8 (UniProt Q9BVK2),inactive: 0.001
16,ANXA2 isoform 2 (UniProt P07355),inactive: -0.011
